The values that follow come from PMC7819943, “Rice protein-binding microarrays: a tool to detect cis-acting elements near promoter regions in rice”.

Chains of the proteins cited; added tags and fusions are not shown.
UniProt Q0JBA9, entry or part of it: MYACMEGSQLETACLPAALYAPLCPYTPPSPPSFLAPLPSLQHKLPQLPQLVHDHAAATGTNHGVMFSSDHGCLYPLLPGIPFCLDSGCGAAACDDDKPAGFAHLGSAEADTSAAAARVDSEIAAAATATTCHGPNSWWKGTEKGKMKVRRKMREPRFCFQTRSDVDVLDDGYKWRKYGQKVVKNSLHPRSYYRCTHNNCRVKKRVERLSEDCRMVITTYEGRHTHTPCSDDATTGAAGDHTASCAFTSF

The list shows a part of the results.

This test has as its target OsWRKY34 (Oryza sativa, UniProt Q0JBA9 1-250). Kind of test: protein-binding microarray (RPBM); PBS, 2% BSA, 51.3 ng/ul salmon testes DNA, 50 uM zinc acetate, 200 nM TF, 25 C, 1 h; high values mean tight binding. The following applies: protein: recombinant; tags: N-terminal polyhistidine and DsRed monomer fusion (pET32a); label: CyDye5-dUTP incorporated in the synthesized complementary strand; 3' TTTTT single-stranded linker to array surface; dsDNA, one strand shown. In short, it runs like this:
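A custom Agilent array was converted to double-stranded form by primer extension with Cy5-dUTP and blocked with 2% BSA. Protein at 200 nM in PBS with 2% BSA, salmon testes DNA and 50 µM zinc acetate was applied for 1 h at 25 °C, followed by washing. The proteins were polyhistidine–DsRed N-terminal fusions of transcription factors, expressed in E. coli BL21-CodonPlus and Ni–NTA-purified. The binding signal is per-feature fluorescence intensity (arbitrary units) from an Axon 4000B scanner.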
For “CATTCCGCTTTACTGCTCTCGCTTAGCTTTTGCTGAGAATCGGAGTCACCTAGTGCAG”, the binding signal was 8450 fluorescence intensity (a.u.).

For “AGTACTTTTTTATCAACCATGCCAATTTTTTCTCCTCACACGGAGTCACCTAGTGCAG”, the binding signal was 9520 fluorescence intensity (a.u.).

On to “TTCTCAAGTTTTCTATGTAGAAATTTTTTAGCTATATGTACGGAGTCACCTAGTGCAG”, for which the binding signal was 8060 fluorescence intensity (a.u.).

As for “AATCTTCTCTTACATGACTTTTTGGTTACATTACGGACACCGGAGTCACCTAGTGCAG”, the binding signal was 9940 fluorescence intensity (a.u.).

Consider “CGCCATGGGAGCTTCCTCTCCTCGACCTCGCGCCGGCCAACGGAGTCACCTAGTGCAG”, for which the binding signal is 8340 fluorescence intensity (a.u.).

Regarding “ACTAAGTGTCTGTCCTGTTTTGAAGAGAAAAAACTTTTTTCGGAGTCACCTAGTGCAG”, the binding signal was 8970 fluorescence intensity (a.u.).

Turning to “CGCGCCCGGCGCCTCTCTCCTCCTATTCGCCGTGCTAATCCGGAGTCACCTAGTGCAG”, the binding signal was 9430 fluorescence intensity (a.u.).

Turning to “TCGGGTTTGAGAGGGTGGTATCCGATGGATACGGATTATCCGGAGTCACCTAGTGCAG”, the binding signal was 9620 fluorescence intensity (a.u.).

On to “TTCTTCCAACTGTCTTCTCTCATTCTCCGCGCGGACGCTTCGGAGTCACCTAGTGCAG”, for which the binding signal is 9780 fluorescence intensity (a.u.).

Turning to “TACGTGTTGAGTATAGGTAGGATGGTAGAAGTTATTTTTTCGGAGTCACCTAGTGCAG”, the binding signal is 8110 fluorescence intensity (a.u.).

For “TGGATTTGTATTGTATTTGGTCTCTGCCGTGTTGCTGCTTCGGAGTCACCTAGTGCAG”, the binding signal is 9340 fluorescence intensity (a.u.).

Take “ATTTTTTTAATTCCGAATTTCTTTTTTTTCTTAATTGTATCGGAGTCACCTAGTGCAG”: the binding signal was 10100 fluorescence intensity (a.u.).

Turning to “TTTCTTCTTCGTCTCCGTCGCCTAGTCGGCTTCGCCTCCGCGGAGTCACCTAGTGCAG”, the binding signal was 9520 fluorescence intensity (a.u.).

For “AAACCACATCATATCATGCGTAGTTATTACTATATTATATCGGAGTCACCTAGTGCAG”, the binding signal is 8760 fluorescence intensity (a.u.).

As to “ATGAACACCACGTCGTCCGTCTCCACTCCGCCTGCGTACACGGAGTCACCTAGTGCAG”, the binding signal was 10600 fluorescence intensity (a.u.).

For the sequence “GCCCAATTATTACTCCTCCACTACTACTCCTCCACCCGCGCGGAGTCACCTAGTGCAG”, the binding signal is 9220 fluorescence intensity (a.u.).

In the case of “TACAAATAAAACAAAATATGTTTAAAAAAGTCAACGGCATCGGAGTCACCTAGTGCAG”, the binding signal was 10600 fluorescence intensity (a.u.).

As for “ATCTGTAGCCCGCTGCTCTTCTCTCTCTTCCTTTATCTCTCGGAGTCACCTAGTGCAG”, the binding signal was 10600 fluorescence intensity (a.u.).

Take “AACTTGAATACGTTGAATTTAAATATGTACGTACGTTTGTCGGAGTCACCTAGTGCAG”: the binding signal is 8640 fluorescence intensity (a.u.).

On to “CTTCAAGCTACCTTGCTTCTCCAGATCACTCTCTTTCAGCCGGAGTCACCTAGTGCAG”, for which the binding signal is 8780 fluorescence intensity (a.u.).

On to “ATGTCATGTCATGGTCGTCTCTTCTCTTGGAGGATTATTACGGAGTCACCTAGTGCAG”, for which the binding signal is 8060 fluorescence intensity (a.u.).

With “CTTAACGGCCCATTTATCTTGTCTCTCTGGCCCACCTGCACGGAGTCACCTAGTGCAG”, the binding signal was 12300 fluorescence intensity (a.u.).

“GACTATGCGCGCTATATAAAGGATCACATTATCTCATACTCGGAGTCACCTAGTGCAG”: the binding signal was 8930 fluorescence intensity (a.u.).

“CTTGATAATTACTCTTACGTCCCTCACCCTATGTTCCTGTCGGAGTCACCTAGTGCAG”: the binding signal is 8960 fluorescence intensity (a.u.).

Consider “AATGGCTCACTACCTCGTTTTAAGTTTTTTCCCAATTTTCCGGAGTCACCTAGTGCAG”, for which the binding signal was 9970 fluorescence intensity (a.u.).

In the case of “GAAATGTTTGTTGATCATTCGTCTTATTTAAATTTTTTTGCGGAGTCACCTAGTGCAG”, the binding signal is 8650 fluorescence intensity (a.u.).

As for “CTCACGCTCGCAACAACACAAAACCCTAGACTTGCACAGACGGAGTCACCTAGTGCAG”, the binding signal is 8160 fluorescence intensity (a.u.).

Turning to “TTTTAACATTTTTCTTGCACTGTTTGACCATTCGTCTTATCGGAGTCACCTAGTGCAG”, the binding signal is 10400 fluorescence intensity (a.u.).

For the sequence “CTTTCTTTTTCCTTCTCTCTCTCTTTTCTTTCTTTTCTTTCGGAGTCACCTAGTGCAG”, the binding signal was 13600 fluorescence intensity (a.u.).

As for “ATCCTGCGACCGCGGCTCAATCCCAATCCCATGCCGATCCCGGAGTCACCTAGTGCAG”, the binding signal is 9310 fluorescence intensity (a.u.).

With “GAACAAAAATCCATTGACCACTTCCTCTCTCTCTTCGTCACGGAGTCACCTAGTGCAG”, the binding signal was 10600 fluorescence intensity (a.u.).

Consider “CGGTATTATTTTATTTTTTACTATGATGTTCTATTCAATTCGGAGTCACCTAGTGCAG”, for which the binding signal was 8660 fluorescence intensity (a.u.).

In the case of “TCGCAAGAGTTGTTGAAAGTTGACCAGCATATTGAGGCCCCGGAGTCACCTAGTGCAG”, the binding signal was 8130 fluorescence intensity (a.u.).

For “ACTTCTCGTGCCAATGTGCGCGCACGGCTTTTTTTTTTTTCGGAGTCACCTAGTGCAG”, the binding signal was 13600 fluorescence intensity (a.u.).

“GGATTTAGGCTGCTTCACAACTACATTCTAGACCCGACTCCGGAGTCACCTAGTGCAG”: the binding signal is 8080 fluorescence intensity (a.u.).

Take “CCAATTTGTAGCCACTCTCAACTCTACCTTACTAAAATTTCGGAGTCACCTAGTGCAG”: the binding signal was 8170 fluorescence intensity (a.u.).

On to “CGGCCTGCCTGCTCTGCCCGCCACCACGCTGCCAGCTTCGCGGAGTCACCTAGTGCAG”, for which the binding signal was 8300 fluorescence intensity (a.u.).

Regarding “GCTTTGGGGCTAATTTGATTTCAAGACAATTTGGTATTAGCGGAGTCACCTAGTGCAG”, the binding signal is 8440 fluorescence intensity (a.u.).

For the sequence “GGGGCAAAAATCACCTAATCTAAACCCTTCTCACAAAACTCGGAGTCACCTAGTGCAG”, the binding signal was 8310 fluorescence intensity (a.u.).

Turning to “ACGGCATCGGCTCCTGCATCGTCTCCACGCCTACTCCATCCGGAGTCACCTAGTGCAG”, the binding signal was 13700 fluorescence intensity (a.u.).

Regarding “AATCAAACGACCATTCCTATGTTTTGCAATCCTCTGTTTTCGGAGTCACCTAGTGCAG”, the binding signal is 11900 fluorescence intensity (a.u.).

Turning to “CGCCCGTGTCTTGTGTGTTTCCATTCTCGCGAACCTTCCACGGAGTCACCTAGTGCAG”, the binding signal is 16100 fluorescence intensity (a.u.).
